Assay results as given in US12729225B2, “Non-canonical SWI/SNF complex and uses thereof” (Dana-Farber Cancer Institute, Inc., priority 2018, dated 2026).

System: mSWI/SNF complexes
Assay: mSWI/SNF complex purification with HA-tagged baits and mass spectrometry (peptide counts)
Parameters: species or system human
Conditions: 293_HA-BRD7: HA-BRD7 bait purification; for Total: total peptide count per co-purified protein; for Unique: unique peptide count per co-purified protein

B1: SERPINH1 (protein, UniProt P50454 19-418, looked up)
Serpin H1: AEVKKPAAAAAPGTAEKLSPKAATLAERSAGLAFSLYQAMAKDQAVENILVSPVVVASSLGLVSLGGKATTASQAKAVLSAEQLRDEEVHAGLGELLRSLSNSTARNVTWKLGSRLYGPSSVSFADDFVRSSKQHYNCEHSKINFRDKRSALQSINEWAAQTTDGKLPEVTKDVERTDGALLVNAMFFKPHWDEKFHHKMVDNRGFMVTRSYTVGVMMMHRTGLYNYYDDEKEKLQIVEMPLAHKLSSLIILMPHHVEPLERLEKLLTKEQLKIWMGKMQKKAVAISLPKGVVEVTHDLQKHLAGLGLTEAIDKNKADLSRMSGKKDLYLASVFHATAFELDTDGNPFDQDIYGREELRSPKLFYADHPFIFLVRDTQSGSLLFIGRLVRPKGDKMRDEL
Molecule B1 has a Total of 6 and a Unique of 6.

B2: TCOF1 (protein, UniProt Q13428 1-1488, looked up)
Treacle protein: MAEARKRRELLPLIYHHLLRAGYVRAAREVKEQSGQKCFLAQPVTLLDIYTHWQQTSELGRKRKAEEDAALQAKKTRVSDPISTSESSEEEEEAEAETAKATPRLASTNSSVLGADLPSSMKEKAKAETEKAGKTGNSMPHPATGKTVANLLSGKSPRKSAEPSANTTLVSETEEEGSVPAFGAAAKPGMVSAGQADSSSEDTSSSSDETDVEGKPSVKPAQVKASSVSTKESPARKAAPAPGKVGDVTPQVKGGALPPAKRAKKPEEESESSEEGSESEEEAPAGTRSQVKASEKILQVRAASAPAKGTPGKGATPAPPGKAGAVASQTKAGKPEEDSESSSEESSDSEEETPAAKALLQAKASGKTSQVGAASAPAKESPRKGAAPAPPGKTGPAVAKAQAGKREEDSQSSSEESDSEEEAPAQAKPSGKAPQVRAASAPAKESPRKGAAPAPPRKTGPAAAQVQVGKQEEDSRSSSEESDSDREALAAMNAAQVKPLGKSPQVKPASTMGMGPLGKGAGPVPPGKVGPATPSAQVGKWEEDSESSSEESSDSSDGEVPTAVAPAQEKSLGNILQAKPTSSPAKGPPQKAGPVAVQVKAEKPMDNSESSEESSDSADSEEAPAAMTAAQAKPALKIPQTKACPKKTNTTASAKVAPVRVGTQAPRKAGTATSPAGSSPAVAGGTQRPAEDSSSSEESDSEEEKTGLAVTVGQAKSVGKGLQVKAASVPVKGSLGQGTAPVLPGKTGPTVTQVKAEKQEDSESSEEESDSEEAAASPAQVKTSVKKTQAKANPAAARAPSAKGTISAPGKVVTAAAQAKQRSPSKVKPPVRNPQNSTVLARGPASVPSVGKAVATAAQAQTGPEEDSGSSEEESDSEEEAETLAQVKPSGKTHQIRAALAPAKESPRKGAAPTPPGKTGPSAAQAGKQDDSGSSSEESDSDGEAPAAVTSAQVIKPPLIFVDPNRSPAGPAATPAQAQAASTPRKARASESTARSSSSESEDEDVIPATQCLTPGIRTNVVTMPTAHPRIAPKASMAGASSSKESSRISDGKKQEGPATQVSKKNPASLPLTQAALKVLAQKASEAQPPVARTQPSSGVDSAVGTLPATSPQSTSVQAKGTNKLRKPKLPEVQQATKAPESSDDSEDSSDSSSGSEEDGEGPQGAKSAHTLGPTPSRTETLVEETAAESSEDDVVAPSQSLLSGYMTPGLTPANSQASKATPKLDSSPSVSSTLAAKDDPDGKQEAKPQQAAGMLSPKTGGKEAASGTTPQKSRKPKKGAGNPQASTLALQSNITQCLLGQPWPLNEAQVQASVVKVLTELLEQERKKVVDTTKESSRKGWESRKRKLSGDQPAARTPRSKKKKKLGAGEGGEASVSPEKTSTTSKGKAKRDKASGDVKEKKGKGSLGSQGAKDEPEEELQKGMGTVEGGDQSNPKSKKEKKKSDKRKKDKEKKEKKKKAKKASTKDSESPSQKKKKKKKKTAEQTV
With B2 the Total was 6 and the Unique was 6.

B3: PPAN (protein, UniProt Q9NQ55 1-473, looked up)
Suppressor of SWI4 1 homolog: MGQSGRSRHQKRARAQAQLRNLEAYAANPHSFVFTRGCTGRNIRQLSLDVRRVMEPLTASRLQVRKKNSLKDCVAVAGPLGVTHFLILSKTETNVYFKLMRLPGGPTLTFQVKKYSLVRDVVSSLRRHRMHEQQFAHPPLLVLNSFGPHGMHVKLMATMFQNLFPSINVHKVNLNTIKRCLLIDYNPDSQELDFRHYSIKVVPVGASRGMKKLLQEKFPNMSRLQDISELLATGAGLSESEAEPDGDHNITELPQAVAGRGNMRAQQSAVRLTEIGPRMTLQLIKVQEGVGEGKVMFHSFVSKTEEELQAILEAKEKKLRLKAQRQAQQAQNVQRKQEQREAHRKKSLEGMKKARVGGSDEEASGIPSRTASLELGEDDDEQEDDDIEYFCQAVGEAPSEDLFPEAKQKRLAKSPGRKRKRWEMDRGRGRLCDQKFPKTKDKSQGAQARRGPRGASRDGGRGRGRGRPGKRVA
B3 showed a Total of 6 and a Unique of 6.

B4: VDAC2 (protein, UniProt P45880 2-294, looked up)
Non-selective voltage-gated …: ATHGQTCARPMCIPPSYADLGKAARDIFNKGFGFGLVKLDVKTKSCSGVEFSTSGSSNTDTGKVTGTLETKYKWCEYGLTFTEKWNTDNTLGTEIAIEDQICQGLKLTFDTTFSPNTGKKSGKIKSSYKRECINLGCDVDFDFAGPAIHGSAVFGYEGWLAGYQMTFDSAKSKLTRNNFAVGYRTGDFQLHTNVNDGTEFGGSIYQKVCEDLDTSVNLAWTSGTNCTRFGIAAKYQLDPTASISAKVNNSSLIGVGYTQTLRPGVKLTLSALVDGKSINAGGHKVGLALELEA
Molecule B4 has a Total of 6 and a Unique of 6.

B5: PHF10 (protein)
chain: AAAAGPGAALSPRPCDSDPATPGAQSPKDDNEDNSNDGTQPSKRRRMGSGDSSRSCETSSQDLGFSYYPAENLIEYKWPPDETGEYYMLQEQVSEYLGVTSFKRKYPDLERRDLSHKEKLYLRELNVITETQCTLGLTALRSDEVIDLMIKEYPAKHAEYSVILQEKERQRITDHYKEYSQMQQQNTQKVEASKVPEYIKKAAKKAAEFNSNLNRERMEERRAYFDLQTHVIQVPQGKYKVLPTERTKVSSYPVALIPGQFQEYYKRYSPDELRYLPLNTALYEPPLDPELPALDSDGDSDDGEDGRGDEKRKNKGTSDSSSGNVSEGESPPDSQEDSFQGRQKSKDKAATPRKDGPKRSVLSKSVPGYKPKVIPNAICGICLKGKESNKKGKAESLIHCSQCENSGHPSCLDMTMELVSMIKTYPWQCMECKTCIICGQPHHEEEMMFCDMCDRGYHTFCVGLGAIPSGRWICDCCQRAPPTPRKVGRRGKNSKEG
With B5 the Total was 58 and the Unique was 31.

B6: SSR4 (protein, UniProt P51571 24-173, looked up)
Translocon-associated protein …: EACLEPQITPSYYTTSDAVISTETVFIVEISLTCKNRVQNMALYADVGGKQFPVTRGQDVGRYQVSWSLDHKSAHAGTYEVRFFDEESYSLLRKAQRNNEDISIIPPLFTVSVDHRGTWNGPWVSTEVLAAAIGLVIYYLAFSAKSHIQA
Work on B6 yielded a Total of 6 and a Unique of 5.

B7: IDH2 (protein, UniProt P48735 40-452, looked up)
Isocitrate dehydrogenase …: ADKRIKVAKPVVEMDGDEMTRIIWQFIKEKLILPHVDIQLKYFDLGLPNRDQTDDQVTIDSALATQKYSVAVKCATITPDEARVEEFKLKKMWKSPNGTIRNILGGTVFREPIICKNIPRLVPGWTKPITIGRHAHGDQYKATDFVADRAGTFKMVFTPKDGSGVKEWEVYNFPAGGVGMGMYNTDESISGFAHSCFQYAIQKKWPLYMSTKNTILKAYDGRFKDIFQEIFDKHYKTDFDKNKIWYEHRLIDDMVAQVLKSSGGFVWACKNYDGDVQSDILAQGFGSLGLMTSVLVCPDGKTIEAEAAHGTVTRHYREHQKGRPTSTNPIASIFAWTRGLEHRGKLDGNQDLIRFAQMLEKVCVETVESGAMTKDLAGCIHGLSNVKLNEHFLNTTDFLDTIKSNLDRALGRQ
Molecule B7 has a Total of 6 and a Unique of 5.

B8: ATAD3B (protein, UniProt Q5T9A4 2-648, looked up)
ATPase family AAA …: SWLFGVNKGPKGEGAGPPPPLPPAQPGAEGGGDRGLGDRPAPKDKWSNFDPTGLERAAKAARELEHSRYAKEALNLAQMQEQTLQLEQQSKLKEYEAAVEQLKSEQIRAQAEERRKTLSEETRQHQARAQYQDKLARQRYEDQLKQQQLLNEENLRKQEESVQKQEAMRRATVEREMELRHKNEMLRVETEARARAKAERENADIIREQIRLKASEHRQTVLESIRTAGTLFGEGFRAFVTDRDKVTATVAGLTLLAVGVYSAKNATAVTGRFIEARLGKPSLVRETSRITVLEALRHPIQVSRRLLSRPQDVLEGVVLSPSLEARVRDIAIATRNTKKNRGLYRHILLYGPPGTGKTLFAKKLALHSGMDYAIMTGGDVAPMGREGVTAMHKLFDWANTSRRGLLLFMDEADAFLRKRATEEISKDLRATLNAFLYHMGQHSNKFMLVLASNLPEQFDCAINSRIDVMVHFDLPQQEERERLVRLHFDNCVLKPATEGKRRLKLAQFDYGRKCSEVARLTEGMSGREIAQLAVSWQATAYASKDGVLTEAMMDACVQDAVQQYRQKMRWLKAEGPGRGVEHPLSGVQGETLTSWSLATDPSYPCLAGPCTFRICSWMGTGLCPGPLSPRMSCGGGRPFCPPGHPLL
B8 was tested, and the Total was 6 and the Unique was 5.

B9: KPNA3 (protein, UniProt O00505 2-521, looked up)
Importin subunit alpha-4: AENPSLENHRIKSFKNKGRDVETMRRHRNEVTVELRKNKRDEHLLKKRNVPQEESLEDSDVDADFKAQNVTLEAILQNATSDNPVVQLSAVQAARKLLSSDRNPPIDDLIKSGILPILVKCLERDDNPSLQFEAAWALTNIASGTSAQTQAVVQSNAVPLFLRLLRSPHQNVCEQAVWALGNIIGDGPQCRDYVISLGVVKPLLSFISPSIPITFLRNVTWVIVNLCRNKDPPPPMETVQEILPALCVLIYHTDINILVDTVWALSYLTDGGNEQIQMVIDSGVVPFLVPLLSHQEVKVQTAALRAVGNIVTGTDEQTQVVLNCDVLSHFPNLLSHPKEKINKEAVWFLSNITAGNQQQVQAVIDAGLIPMIIHQLAKGDFGTQKEAAWAISNLTISGRKDQVEYLVQQNVIPPFCNLLSVKDSQVVQVVLDGLKNILIMAGDEASTIAEIIEECGGLEKIEVLQQHENEDIYKLAFEIIDQYFSGDDIDEDPCLIPEATQGGTYNFDPTANLQTKEFNF
B9 showed a Total of 5 and a Unique of 5.

B10: NOP58 (protein, UniProt Q9Y2X3 1-529, looked up)
Nucleolar protein 58: MLVLFETSVGYAIFKVLNEKKLQEVDSLWKEFETPEKANKIVKLKHFEKFQDTAEALAAFTALMEGKINKQLKKVLKKIVKEAHEPLAVADAKLGGVIKEKLNLSCIHSPVVNELMRGIRSQMDGLIPGVEPREMAAMCLGLAHSLSRYRLKFSADKVDTMIVQAISLLDDLDKELNNYIMRCREWYGWHFPELGKIISDNLTYCKCLQKVGDRKNYASAKLSELLPEEVEAEVKAAAEISMGTEVSEEDICNILHLCTQVIEISEYRTQLYEYLQNRMMAIAPNVTVMVGELVGARLIAHAGSLLNLAKHAASTVQILGAEKALFRALKSRRDTPKYGLIYHASLVGQTSPKHKGKISRMLAAKTVLAIRYDAFGEDSSSAMGVENRAKLEARLRTLEDRGIRKISGTGKALAKTEKYEHKSEVKTYDPSGDSTLPTCSKKRKIEQVDKEDEITEKKAKKAKIKVKVEEEEEEKVAEEEETSVKKKKKRGKKKHIKEEPLSEEEPCTSTAIASPEKKKKKKKKRENED
Molecule B10 has a Total of 5 and a Unique of 5.
